According to publication PMC4979867, “Reconstitution of the membrane protein OmpF into biomimetic block copolymer–phospholipid hybrid membranes” (Beilstein Journal of Nanotechnology, 2016):
Results are given in words; binding and its absence hold for the method and conditions named.

Target: outer membrane protein OmpF from Escherichia coli (Escherichia coli) (UniProt P02931)
Assay: SDS-PAGE of the boiled sample; purified OmpF in 1% octyl-POE, sample boiled before SDS-PAGE; both purified

binding: no binding (condition: boiled sample)
B1: outer membrane protein OmpF from Escherichia coli (natural protein, UniProt P02931 23-362, looked up)
chain: AEIYNKDGNKVDLYGKAVGLHYFSKGNGENSYGGNGDMTYARLGFKGETQINSDLTGYGQWEYNFQGNNSEGADAQTGNKTRLAFAGLKYADVGSFDYGRNYGVVYDALGYTDMLPEFGGDTAYSDDFFVGRVGGVATYRNSNFFGLVDGLNFAVQYLGKNERDTARRSNGDGVGGSISYEYEGFGIVGAYGAADRTNLQEAQPLGNGKKAEQWATGLKYDANNIYLAANYGETRNATPITNKFTNTSGFANKTQDVLLVAQYQFDFGLRPSIAYTKSKAKDVEGIGDVDLVNYFEVGATYYFNKNMSTYVDYIINQIDSDNKLGVGSDDTVAVGIVYQF
notes: Outer membrane porin OmpF, Escherichia coli, native protein from strain B^E BL21(DE3)omp6 (lacks LamB and OmpC); no residues or identifiers printed; The protein here comes from an E. coli B strain, whose OmpF may differ from it at a few positions; also called native OmpF protein
